The text below walks through data of publication PMC7819943, “Rice protein-binding microarrays: a tool to detect cis-acting elements near promoter regions in rice”.

Some of the results follow.

The target of this assay is T1, OsSMF1 (Oryza sativa, UniProt Q6ZLB0 1-436).
T1 sequence: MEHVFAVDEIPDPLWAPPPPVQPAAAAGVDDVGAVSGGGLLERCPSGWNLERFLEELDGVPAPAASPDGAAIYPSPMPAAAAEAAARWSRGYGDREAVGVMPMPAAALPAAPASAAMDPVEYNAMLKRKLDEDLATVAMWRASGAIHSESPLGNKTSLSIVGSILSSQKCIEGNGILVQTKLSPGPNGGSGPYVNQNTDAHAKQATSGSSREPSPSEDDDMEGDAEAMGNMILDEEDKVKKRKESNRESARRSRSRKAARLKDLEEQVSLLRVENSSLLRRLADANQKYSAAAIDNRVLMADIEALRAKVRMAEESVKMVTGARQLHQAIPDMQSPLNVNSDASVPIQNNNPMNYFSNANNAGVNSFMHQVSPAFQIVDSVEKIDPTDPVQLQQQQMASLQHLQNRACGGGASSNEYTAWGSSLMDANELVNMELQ
Briefly: protein-binding microarray (RPBM); PBS, 2% BSA, 51.3 ng/ul salmon testes DNA, 50 uM zinc acetate, 200 nM TF, 25 C, 1 h; high values mean tight binding. The settings on record: protein: recombinant; tags: N-terminal polyhistidine and DsRed monomer fusion (pET32a); chain copies: 2; label: CyDye5-dUTP incorporated in the synthesized complementary strand; 3' TTTTT single-stranded linker to array surface; dsDNA, one strand shown. An outline of the steps: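 Binding signal is reported as fluorescence intensity per feature (arbitrary units) from an Axon 4000B scanner. Incubation used 200 nM of each Ni–NTA-purified, N-terminally polyhistidine- and DsRed-fused transcription factor from E. coli BL21-CodonPlus on a double-stranded custom Agilent array for 1 h at 25 °C, with 50 µM zinc acetate in the buffer, followed by washing.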
Consider “GAAAAGGTGTATTGGATCATGCTTGAAGAATGATGACTATCGGAGTCACCTAGTGCAG”, for which the binding signal was 3630 fluorescence intensity (a.u.).
On to “GCAGCAATCTTGGTCTCTAGCTAGTTCTGTTCAATACTAGCGGAGTCACCTAGTGCAG”, for which the binding signal is 3640 fluorescence intensity (a.u.).
As to “AGCTCCCGAAAATATCTCTTGCTCGATATAAACGGGCCGGCGGAGTCACCTAGTGCAG”, the binding signal is 4060 fluorescence intensity (a.u.).
Turning to “GGCACACGCGAGGGCACCACTCCACGTCAAGGTATGGTCACGGAGTCACCTAGTGCAG”, the binding signal was 9790 fluorescence intensity (a.u.).
The result for “GAACTGAAGGTTTCTGGAGGATGCGTCATGGTGATCTTAACGGAGTCACCTAGTGCAG” reads 4200 fluorescence intensity (a.u.).
Then “ATCTGTGTGTATGTTTGTGGGTTTCTGTCCATTGAGATATCGGAGTCACCTAGTGCAG”, with 3280 fluorescence intensity (a.u.); and “ATCCTGGGCCCAACTCGCCAATGTAAAGCCTTCTTTCTCGCGGAGTCACCTAGTGCAG”, with 3460 fluorescence intensity (a.u.); and “GTGTTGGAGAGCTGCAGCGGCGAGGAGTTGCGCACCTGGCCGGAGTCACCTAGTGCAG”, with 19600 fluorescence intensity (a.u.).
“GCAACCTCATCAGCGCTTGCTCGATGGATGACAGACGAGGCGGAGTCACCTAGTGCAG”: the binding signal was 3400 fluorescence intensity (a.u.).
The result for “ATGGGCTGATTGGGCCAGATTACACGTGCGACGTATCTGTCGGAGTCACCTAGTGCAG” reads 5450 fluorescence intensity (a.u.); that for “GTAACACAGCCCTCGGCCACGTTTCAAACTTCCAGAGTTCCGGAGTCACCTAGTGCAG”, 3520 fluorescence intensity (a.u.); that for “ATAGATCGATGGATCGATGGATCGCGGCCAGCTCAGATATCGGAGTCACCTAGTGCAG”, 5840 fluorescence intensity (a.u.).
Then “GTGAAGAAATGCAATTTACACTCTTGATGAATCATCTAAACGGAGTCACCTAGTGCAG”, with 4170 fluorescence intensity (a.u.).
For the sequence “TTACAGTATAGTCCTAGAAACTATTTGGCATGCGTTGATTCGGAGTCACCTAGTGCAG”, the binding signal was 12900 fluorescence intensity (a.u.).
“TGGGATATTTTGGCCATGTACAACACTCCACCGTGGGTAGCGGAGTCACCTAGTGCAG”: the binding signal is 4540 fluorescence intensity (a.u.).
“TTATTTGGCGCTGAGCTATGATGACTCAGCAAATTCGTGCCGGAGTCACCTAGTGCAG”: the binding signal was 21700 fluorescence intensity (a.u.).
Then “TGGCATATGCTCCAAATATTCCAAACTAAACCCCTTCTTGCGGAGTCACCTAGTGCAG”, with 21500 fluorescence intensity (a.u.); and “GCCCCGGTGCCACGTGTTCGGCCGAGACGCCCTCTCCTCTCGGAGTCACCTAGTGCAG”, with 28100 fluorescence intensity (a.u.).
With “CCAGCATTTTCGTCTGTCAGCCAGGCAAACCAAAATGGGGCGGAGTCACCTAGTGCAG”, the binding signal is 3530 fluorescence intensity (a.u.).
Regarding “TTTTAAAACCACATCAGCCACATTTACCTTATCCTCTCGCCGGAGTCACCTAGTGCAG”, the binding signal was 3880 fluorescence intensity (a.u.).
On to “TATACTCACTTTTGTTTTATAGTATAGTTCGATTTAACTTCGGAGTCACCTAGTGCAG”, for which the binding signal is 22500 fluorescence intensity (a.u.).
Turning to “GGCGTCTGTCCTGACCACCTCGCACGTCCGCCGTCTCCTCCGGAGTCACCTAGTGCAG”, the binding signal is 3660 fluorescence intensity (a.u.).
The result for “ATTCGTCCATGAAAAGAGAGAGACAACTAGATCCAAAAGTCGGAGTCACCTAGTGCAG” reads 3210 fluorescence intensity (a.u.).
The result for “GTATTTTAAGAGGGAGGGAGTAGATCGTAGCAGGTGGACACGGAGTCACCTAGTGCAG” reads 3720 fluorescence intensity (a.u.); that for “AGTGGTGGAGAAGGAGAGGAGAGGCAGAGAGAATGAGGAGCGGAGTCACCTAGTGCAG”, 3240 fluorescence intensity (a.u.).
Then “TTTCTCGGGTCATCAGTCCAAGTCATCTCACATGGTGGAGCGGAGTCACCTAGTGCAG”, with 6770 fluorescence intensity (a.u.).
Turning to “AATTCCAAAGTGAAATTCATATTAGCTAAACCGTATAACACGGAGTCACCTAGTGCAG”, the binding signal is 3540 fluorescence intensity (a.u.).
Then “GGCCGGCGCTATCATGCCACCGGGGTTTCCGACTTTCCCTCGGAGTCACCTAGTGCAG”, with 23300 fluorescence intensity (a.u.); and “TCGAAACGTGGCTGAGTCATCGATTGACCTTATCCAGTAGCGGAGTCACCTAGTGCAG”, with 13200 fluorescence intensity (a.u.); and “ATTTCTCACTGTCGTGACATGAGAATTTCAGCAAGGAAGGCGGAGTCACCTAGTGCAG”, with 11000 fluorescence intensity (a.u.).
Consider “ATTTCACCACCACCGCCACGGCCTCTGCCTCTCGCTCTCTCGGAGTCACCTAGTGCAG”, for which the binding signal was 3200 fluorescence intensity (a.u.).
In the case of “CTTGATTACCCCGTAGTCAGGTTTGTATGACTAAGCAACCCGGAGTCACCTAGTGCAG”, the binding signal is 4650 fluorescence intensity (a.u.).
Then “TCGGAGAGGGCGCGGTGGGAGAGGTTGAGCGACGTGGCGACGGAGTCACCTAGTGCAG”, with 5290 fluorescence intensity (a.u.).
For “ATAACTTGCCATGCCGCATTCTCTTTGAACTCGGTCTCTTCGGAGTCACCTAGTGCAG”, the binding signal is 17400 fluorescence intensity (a.u.).
The result for “CGGTCCATGCTTGCTCAGCATGATCCTGATCTCTTCTGCACGGAGTCACCTAGTGCAG” reads 3960 fluorescence intensity (a.u.).
On to “CCTGCTTCCCTCACCAATGACGCCGCTCCCCATACCCCTTCGGAGTCACCTAGTGCAG”, for which the binding signal was 4940 fluorescence intensity (a.u.).
The result for “GAACAGTGACTCAAATTAAGGATGAGAAATGGGTGGATCACGGAGTCACCTAGTGCAG” reads 29100 fluorescence intensity (a.u.).
For “GCGGCGGCGGAGCATCGGGCCCCTTCGGCTTCAGATCCGGCGGAGTCACCTAGTGCAG”, the binding signal is 3420 fluorescence intensity (a.u.).
With “AATCTTTTGATACTAATTAAGCCGTCATTAGCACATGTGGCGGAGTCACCTAGTGCAG”, the binding signal is 3240 fluorescence intensity (a.u.).
Then “CTTGTTGGTAACCAAGCATGACAAGACACTGCTTGGCCTCCGGAGTCACCTAGTGCAG”, with 4330 fluorescence intensity (a.u.); and “CTGCAATCGCACCATCATCGCTCCTCTGGCCATGATCCGTCGGAGTCACCTAGTGCAG”, with 3140 fluorescence intensity (a.u.); and “ATCGATCCCTACCTACGAGGCTTAGGCCCATTAGCCCAAACGGAGTCACCTAGTGCAG”, with 38800 fluorescence intensity (a.u.).
Then “CACTCCCATTCCCATCCTCCACATCCCGCGCCATCGACCTCGGAGTCACCTAGTGCAG”, with 3400 fluorescence intensity (a.u.).
Turning to “AAGTTGTATGTTATAAACGGTAAAGGAAGACAAGTCATACCGGAGTCACCTAGTGCAG”, the binding signal is 3270 fluorescence intensity (a.u.).
Take “CCATGGCACCTCCTCCTACGCCAGCACCGCTGCCGTGATGCGGAGTCACCTAGTGCAG”: the binding signal was 4800 fluorescence intensity (a.u.).
The result for “GAATTCAATATGCGGGTTCAGATAGATGAGTGGGCACTTTCGGAGTCACCTAGTGCAG” reads 3330 fluorescence intensity (a.u.); that for “CTCTCGTCGTCTCGTTCATCCCCGGGCTGGCATCGCAGGACGGAGTCACCTAGTGCAG”, 3270 fluorescence intensity (a.u.); that for “CACTACGTGCCATGGATGGATGCTCTACCGGGCGAAGCTACGGAGTCACCTAGTGCAG”, 25800 fluorescence intensity (a.u.).
Then “TCTCTCTCTCTCTCGCCATCGTCACTGCGGCTGCTGCTGCCGGAGTCACCTAGTGCAG”, with 3810 fluorescence intensity (a.u.).
For “GATCTGGCAGGTCCTCGTGATCTGCTCCCTCAGCTCGTCCCGGAGTCACCTAGTGCAG”, the binding signal was 22900 fluorescence intensity (a.u.).
As to “GAGGGAGTCAAAGTGGGTTTACTCCACCTACGAATCCAATCGGAGTCACCTAGTGCAG”, the binding signal is 4940 fluorescence intensity (a.u.).
Turning to “GGCCGAAGCAGTGGTTTTCAAGTTGCGCCAACACATCGTCCGGAGTCACCTAGTGCAG”, the binding signal was 3610 fluorescence intensity (a.u.).
Then “TTGTGTGTTGTAGTGGTGAGTGGTGTTTTGATGGTTTCTGCGGAGTCACCTAGTGCAG”, with 4280 fluorescence intensity (a.u.).
For “CGGGCCAAAATTATTCAGATCCCACGTGTCAGCTCACGGGCGGAGTCACCTAGTGCAG”, the binding signal was 10100 fluorescence intensity (a.u.).
